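293T-iDUX4 dual-reporter cells; luminescence of the tet-on Italica luciferase control is read after 24 h. The test concentration is not given here. Percent change in the Italica control signal; more negative values mean stronger inhibition, which points to nonspecific, tet-on or cytotoxic effects.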

Values are in %. Common to all entries: measured here: Italica tet-on control reporter. Part of the compounds only, not a random draw; the main read-out is not listed here.

| # | structure | activity change (%) |
|---|---|---|
| 1 | `O=C(CC1CC1)N1CC(=O)N2[C@H](C1)[C@@H](c1ccc(/C=C/c3ccccc3)cc1)[C@@H]2CO` | -21.79 |
| 2 | `COc1ccc2c3c(n(C)c2c1)[C@@H](CO)N(Cc1ccccc1F)CC31CN(C(=O)C2CCC2)C1` | 1.76 |
| 3 | `COc1ccccc1C#Cc1ccc([C@@H]2[C@H]3CN(C(=O)C4CCC4)CCCCN3[C@H]2CO)cc1` | -52.37 |
| 4 | `O=C(Nc1ccc(F)cc1)N1C[C@H]2[C@@H](c3ccccc31)[C@@H](CO)N2Cc1ccccc1Cl` | -15.97 |
| 5 | `COc1cccc(C#Cc2ccc([C@H]3[C@H]4CN(S(=O)(=O)c5ccccc5C)CC(=O)N4[C@H]3CO)cc2)c1` | -18.94 |
| 6 | `N#C[C@@H]1[C@@H](c2ccccc2-c2ccccc2)[C@H](CO)N1C(=O)NC1CCCC1` | -14.91 |
| 7 | `O=C(CN1CCOCC1)N1CCCCN2[C@H](C1)[C@H](c1ccc(C#Cc3ccccc3F)cc1)[C@@H]2CO` | -24.26 |
| 8 | `N#C[C@H]1[C@H](c2ccccc2C2=CCCCC2)[C@@H](CO)N1C(=O)c1cccc(F)c1` | -34.12 |
| 9 | `CC(C)COC(=O)N(C)C[C@@H]1OCc2ccccc2-c2c(n(C)c3ccccc23)C(=O)N([C@H](C)CO)C[C@@H]1C` | -72.85 |
| 10 | `COc1ccc2c3c(n(C)c2c1)[C@H](CO)N(C(=O)Nc1ccc(F)cc1)CC31CN(S(=O)(=O)c2cccc(F)c2)C1` | -8.044 |
| 11 | `N#Cc1cccc(-c2ccc3c(c2)[C@H]2[C@H](CCN2Cc2ccc4c(c2)OCO4)[C@@H](CO)N3)c1` | -13.87 |
| 12 | `O=C(C[C@@H]1C[C@H]2c3cc(NC(=O)c4ccc5c(c4)OCO5)ccc3O[C@H]2[C@H](CO)O1)NCc1cc(F)ccc1F` | -11.03 |
| 13 | `CCCNC(=O)N1CC2(C1)[C@H](c1ccccc1)[C@@H](CO)N2Cc1ccccc1` | -3.244 |
| 14 | `CN1c2ccc(-c3ccccc3F)cc2[C@H]2[C@H](CCN2C(=O)c2cccc(F)c2)[C@H]1CO` | -11.95 |
| 15 | `O=C(c1ccc(F)cc1)N1CCCCN2[C@H](CO)[C@@H](c3ccc(-c4ccccc4)cc3)[C@@H]2C1` | -16.75 |
| 16 | `CCS(=O)(=O)N1CC(=O)N2[C@H](CO)[C@@H](c3ccc(C#Cc4cccc(F)c4)cc3)[C@@H]2C1` | -6.47 |
| 17 | `Cc1ccc(S(=O)(=O)N2C[C@@H](O)COC[C@@H]3O[C@H](CC(=O)NCc4ccc(Cl)c(Cl)c4)CC[C@H]32)cc1` | -29.01 |
| 18 | `COc1ccc2c3c([nH]c2c1)[C@H](CO)N(CC1CC1)CC31CN(C(=O)c2ccccc2F)C1` | -18.33 |
| 19 | `CO[C@H]1CN(C)C(=O)c2ccc(NC(=O)c3cccc(F)c3)cc2OC[C@H](C)N(CC2CC2)C[C@@H]1C` | -1.678 |
| 20 | `O=C(CC1CC1)N1CC(=O)N2[C@H](CO)[C@@H](c3ccc(C#Cc4cccc(F)c4)cc3)[C@H]2C1` | -6.747 |
| 21 | `COc1cccc(S(=O)(=O)N2CC[C@@H]3[C@@H](CO)Nc4ccc(C#Cc5cccnc5)cc4[C@@H]32)c1` | -3.588 |
| 22 | `COc1ccc2c3c(n(C)c2c1)[C@H](CO)N(C)CC31CCN(S(=O)(=O)c2cccc(C)c2)CC1` | -18.02 |
| 23 | `CO[C@@H]1CN(C)C(=O)c2cc(NC(=O)Nc3ccc(Cl)c(Cl)c3)ccc2OC[C@@H](C)NC[C@@H]1C` | -60.23 |
| 24 | `COc1cccc(C(=O)Nc2ccc3c(c2)OC[C@@H](C)N(CCc2ccccc2)C[C@H](C)[C@@H](OC)CN(C)C3=O)c1` | -12.64 |
| 25 | `CN(C)C(=O)C[C@@H]1CC[C@@H]2[C@H](COC[C@@H](O)CN2Cc2ccc(C(F)(F)F)cc2)O1` | -5.901 |
| 26 | `Cc1ccccc1-c1ccc([C@H]2[C@H]3CN(C(=O)Cc4ccccn4)CCCCN3[C@H]2CO)cc1` | 5.95 |
| 27 | `C[C@H]1CN([C@@H](C)CO)C(=O)c2c(c3ccccc3n2C)-c2ccccc2CO[C@H]1CN(C)S(=O)(=O)c1cccc(C#N)c1` | -70.5 |
| 28 | `O=C(C[C@@H]1CC[C@H]2[C@@H](COC[C@@H](O)CN2C(=O)c2ccccc2F)O1)NCc1ccc(Cl)c(Cl)c1` | -34.74 |
| 29 | `COc1cccc(-c2ccc3c(c2)[C@@H]2[C@@H](CCN2C(=O)c2ccccc2F)[C@H](CO)N3C)c1` | -48.36 |
| 30 | `O=C(Cc1ccncc1)N1CCCCN2[C@H](CO)[C@@H](c3ccc(C#Cc4ccccc4F)cc3)[C@@H]2C1` | -40.69 |
| 31 | `COC(=O)[C@H]1[C@H](CO)[C@H]2Cn3c(ccc(-c4ccccc4OC)c3=O)[C@H]2N1CC1CCCCC1` | -9.159 |
| 32 | `COc1ccc(NC(=O)N(C)C[C@@H]2OCc3ccccc3-c3c(n(C)c4ccccc34)C(=O)N([C@H](C)CO)C[C@@H]2C)cc1` | -1.354 |
| 33 | `CCCNC(=O)N1CC2(CCN(Cc3cccc(OC)c3)CC2)c2c([nH]c3cc(OC)ccc23)[C@@H]1CO` | -43.96 |
| 34 | `O=S(=O)(Cc1ccccc1)N1CC2(C1)[C@H](c1ccccc1)[C@H](CO)N2CC1CCCC1` | -11.8 |
| 35 | `COc1ccc2c3c(n(C)c2c1)[C@H](CO)N(C(=O)Nc1cccc(F)c1)CC31CN(Cc2nccs2)C1` | -13.43 |
| 36 | `CCCC(=O)N1CC2(C1)CN(Cc1ccccc1F)[C@H](CO)c1c2c2ccc(OC)cc2n1C` | -5.102 |
| 37 | `CCN1[C@@H]2Cn3c(ccc(/C=C/c4ccccc4)c3=O)[C@H]1[C@@H](C(=O)NC1Cc3ccccc3C1)[C@@H]2CO` | -2.594 |
| 38 | `O=S(=O)(c1ccccc1F)N1CC[C@@H]2[C@H](CO)Nc3ccc(C4=CCCCC4)cc3[C@@H]21` | -90.56 |

Once more, the final 4:

structure	activity change (%)
COc1ccc2c3c(n(C)c2c1)[C@H](CO)N(C(=O)Nc1cccc(F)c1)CC31CN(Cc2nccs2)C1	-13.43
CCCC(=O)N1CC2(C1)CN(Cc1ccccc1F)[C@H](CO)c1c2c2ccc(OC)cc2n1C	-5.102
CCN1[C@@H]2Cn3c(ccc(/C=C/c4ccccc4)c3=O)[C@H]1[C@@H](C(=O)NC1Cc3ccccc3C1)[C@@H]2CO	-2.594
O=S(=O)(c1ccccc1F)N1CC[C@@H]2[C@H](CO)Nc3ccc(C4=CCCCC4)cc3[C@@H]21	-90.56

The results are deposited in PubChem (AID1224904; Broad Institute, 2016).